Here are results for 2 molecules from publication PMC8394137.

The chains behind the UniProt entries cited, without tags or fusion partners.
UniProt O43736: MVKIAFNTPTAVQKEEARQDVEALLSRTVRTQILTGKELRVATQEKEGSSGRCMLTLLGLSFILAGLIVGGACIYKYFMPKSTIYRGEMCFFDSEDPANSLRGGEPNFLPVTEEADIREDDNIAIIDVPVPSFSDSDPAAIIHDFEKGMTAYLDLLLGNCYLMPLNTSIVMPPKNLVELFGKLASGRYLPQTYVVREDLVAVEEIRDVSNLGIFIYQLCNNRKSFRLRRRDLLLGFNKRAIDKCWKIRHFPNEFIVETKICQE

No constants are given. Whether binding was seen depends on the method and setting. In cells and extracts the contact can be indirect. A yes stands for co-enrichment or nearness to the bait. Other partners may have been found.

The target in this test is HA-ITM2A (UniProt O43736). The experiment in a line: affinity purification with mass spectrometry; HEK293 transfected with HA-ITM2A or empty pcDNA3.1, immunoprecipitated as for co-IP, trypsin digestion, mass spectrometry; proteins of the empty-vector control subtracted.

B1: STT3B (protein, UniProt Q8TCJ2 1-826)
chain: MAEPSAPESKHKSSLNSSPWSGLMALGNSRHGHHGPGAQCAHKAAGGAAPPKPAPAGLSGGLSQPAGWQSLLSFTILFLAWLAGFSSRLFAVIRFESIIHEFDPWFNYRSTHHLASHGFYEFLNWFDERAWYPLGRIVGGTVYPGLMITAGLIHWILNTLNITVHIRDVCVFLAPTFSGLTSISTFLLTRELWNQGAGLLAACFIAIVPGYISRSVAGSFDNEGIAIFALQFTYYLWVKSVKTGSVFWTMCCCLSYFYMVSAWGGYVFIINLIPLHVFVLLLMQRYSKRVYIAYSTFYIVGLILSMQIPFVGFQPIRTSEHMAAAGVFALLQAYAFLQYLRDRLTKQEFQTLFFLGVSLAAGAVFLSVIYLTYTGYIAPWSGRFYSLWDTGYAKIHIPIIASVSEHQPTTWVSFFFDLHILVCTFPAGLWFCIKNINDERVFVALYAISAVYFAGVMVRLMLTLTPVVCMLSAIAFSNVFEHYLGDDMKRENPPVEDSSDEDDKRNQGNLYDKAGKVRKHATEQEKTEEGLGPNIKSIVTMLMLMLLMMFAVHCTWVTSNAYSSPSVVLASYNHDGTRNILDDFREAYFWLRQNTDEHARVMSWWDYGYQIAGMANRTTLVDNNTWNNSHIALVGKAMSSNETAAYKIMRTLDVDYVLVIFGGVIGYSGDDINKFLWMVRIAEGEHPKDIRESDYFTPQGEFRVDKAGSPTLLNCLMYKMSYYRFGEMQLDFRTPPGFDRTRNAEIGNKDIKFKHLEEAFTSEHWLVRIYKVKAPDNRETLDHKPRVTNIFPKQKYLSKKTTKRKRGYIKNKLVFKKGKKISKKTV
For the molecule B1, the binding result was “binds”.

B2: TRIP13 (protein, UniProt Q15645 1-432)
chain: MDEAVGDLKQALPCVAESPTVHVEVHQRGSSTAKKEDINLSVRKLLNRHNIVFGDYTWTEFDEPFLTRNVQSVSIIDTELKVKDSQPIDLSACTVALHIFQLNEDGPSSENLEEETENIIAANHWVLPAAEFHGLWDSLVYDVEVKSHLLDYVMTTLLFSDKNVNSNLITWNRVVLLHGPPGTGKTSLCKALAQKLTIRLSSRYRYGQLIEINSHSLFSKWFSESGKLVTKMFQKIQDLIDDKDALVFVLIDEVESLTAARNACRAGTEPSDAIRVVNAVLTQIDQIKRHSNVVILTTSNITEKIDVAFVDRADIKQYIGPPSAAAIFKIYLSCLEELMKCQIIYPRQQLLTLRELEMIGFIENNVSKLSLLLNDISRKSEGLSGRVLRKLPFLAHALYVQAPTVTIEGFLQALSLAVDKQFEERKKLAAYI
Turning to B2, the binding result is “binds”.
